Source: PubChem BioAssay AID1159594 (NIAID, 2016)

- Purpose: 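Mapping how TLR pathway genes contribute to TLR2/6 signalling in macrophage-like cells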
- Cells: human THP-1 B5 reporter cells, PMA-differentiated into macrophage-like cells
- Reagent: single siRNA against human genes
- Timing: 48 to 72 hours after siRNA transfection; ligand exposure 4 hours
- Conditions: Pam2CSK4 (TLR2/6 agonist) stimulation for 4 hours before lysis; dose not given
- Measurement: 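TNF promoter reporter signal as firefly to renilla luciferase ratio, scaled per plate by median and MAD, given as robust z-score against negative controls, averaged across replicates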
- Reading the numbers: TNF reporter z-score: higher = stronger TNF promoter reporter activity
- Hit rule: 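Active when the mean z-score across replicates is at or beyond ±1.5 in either direction, matching a depositor grade of 50 or higher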
- Meaning of the calls: active = z-score beyond ±1.5 (either direction); inactive = z-score within ±1.5
This is one part, drawn at random, of 756 reagents. Over the whole deposit, 130 (17%) got an active call. 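Active calls cover both falls and rises of reporter activity; each row reflects one siRNA, not a gene-level verdict.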 The numbers tell different reagents against one gene apart. Not given: the amount of reagent.

gene | reagent | TNF reporter z-score, replicate mean | Outcome
ITGAM | 1 | 0.898 | inactive
ITGAM | 2 | -1.64 | active
ITGAM | 3 | -0.46 | inactive
ITGAM | 4 | -0.782 | inactive
ITGAM | 5 | -0.526 | inactive
ITGAM | 6 | 1.71 | active
AKT2 | 1 | -0.466 | inactive
AKT2 | 2 | 0.416 | inactive
AKT2 | 3 | -0.957 | inactive
AKT2 | 4 | 0.197 | inactive
AKT2 | 5 | 0.832 | inactive
AKT2 | 6 | 0.379 | inactive
ELF4 | 1 | -1.9 | active
ELF4 | 2 | -1.61 | active
ELF4 | 3 | -0.496 | inactive
ELF4 | 4 | -1.47 | inactive
ELF4 | 5 | -1.36 | inactive
ELF4 | 6 | -0.444 | inactive
TLR2 | 1 | -0.315 | inactive
TLR2 | 2 | -1.35 | inactive
TLR2 | 3 | -1.87 | active
TLR2 | 4 | -0.0396 | inactive
TLR2 | 5 | -0.124 | inactive
TLR2 | 6 | -1.13 | inactive
TLR7 | 1 | 0.0564 | inactive
TLR7 | 2 | 0.598 | inactive
TLR7 | 3 | -0.0597 | inactive
TLR7 | 4 | -0.747 | inactive
TLR7 | 5 | -0.801 | inactive
TLR7 | 6 | -0.573 | inactive

A few values from the entries so far.
TLR2 #1, Outcome = inactive
For “Outcome”, ELF4 #6 is entered as inactive
Under “Outcome”, TLR7 #3 has inactive
Under “Outcome”, TLR7 #4 is entered as inactive
Value for ELF4 #5 under “Outcome”: inactive
Under “Outcome”, AKT2 #1 has inactive

Next entries:
gene | reagent | TNF reporter z-score, replicate mean | Outcome
IL33R | 1 | -0.647 | inactive
IL33R | 2 | -1.4 | inactive
IL33R | 3 | 0.0424 | inactive
IL33R | 4 | 0.45 | inactive
IL33R | 5 | -2.35 | active
IL33R | 6 | -0.329 | inactive
SIGIRR | 1 | -0.257 | inactive
SIGIRR | 2 | 0.638 | inactive
SIGIRR | 3 | -0.95 | inactive
SIGIRR | 4 | -1.35 | inactive
SIGIRR | 5 | 0.959 | inactive
SIGIRR | 6 | -0.795 | inactive
TAB2 | 1 | 0.798 | inactive
TAB2 | 2 | -0.381 | inactive
TAB2 | 3 | -2.4 | active
TAB2 | 4 | -3.12 | active
TAB2 | 5 | -5.03 | active
TAB2 | 6 | -1.7 | active
